Measured values as given in PMC9018702.
For at least one entry, the source does not settle the construct or the ends of the probe. For part of these data: Negatives hold for the conditions tested.

What was measured:
Assay in all cases: EMSA
MBP-TDR + MBP-OsMS1 = conditions: increasing MBP-OsMS1 enhances TDR binding; EMSA: 10 mM Tris-HCl pH 7.5, 50 mM KCl, 5 mM MgCl2, 1 mM DTT, 2.5% glycerol, 0.05% NP-40, 50 ng/uL poly(dI-dC), 10 fmol probe, 1 ug protein in 20 uL; recombinant protein; label: biotin
[1] = test system: MBP-TDR + MBP-OsMS1wenmin1; conditions: increasing MBP-OsMS1wenmin1 enhances TDR binding, a bit weaker than OsMS1; EMSA: 10 mM Tris-HCl pH 7.5, 50 mM KCl, 5 mM MgCl2, 1 mM DTT, 2.5% glycerol, 0.05% NP-40, 50 ng/uL poly(dI-dC), 10 fmol probe, 1 ug protein in 20 uL; recombinant protein; label: biotin
MBP-OsMS1 = MBP-OsMS1 alone; EMSA: 10 mM Tris-HCl pH 7.5, 50 mM KCl, 5 mM MgCl2, 1 mM DTT, 2.5% glycerol, 0.05% NP-40, 50 ng/uL poly(dI-dC), 10 fmol probe, 1 ug protein in 20 uL; recombinant protein; protein details: MBP (N-terminal, pMAL-c2); label: biotin

“GCGTATCGTGGTCATCTGTCTATTTTACATGCACTTGTAGCTGGATAAA (double strand) [EAT1 promoter P1 probe]”: binds (MBP-TDR + MBP-OsMS1); binds [1]; no binding (MBP-OsMS1).
